Test results: paper doi:10.1101/2023.08.26.554759
No constants are given. Whether binding was seen depends on the method and setting. Binding seen in cells or lysates may run through a third protein. Some results given as binding are weak or reduced against the parent protein; the word gives no strength.

Chains of the proteins cited; added tags and fusions are not shown.
UniProt Q14974: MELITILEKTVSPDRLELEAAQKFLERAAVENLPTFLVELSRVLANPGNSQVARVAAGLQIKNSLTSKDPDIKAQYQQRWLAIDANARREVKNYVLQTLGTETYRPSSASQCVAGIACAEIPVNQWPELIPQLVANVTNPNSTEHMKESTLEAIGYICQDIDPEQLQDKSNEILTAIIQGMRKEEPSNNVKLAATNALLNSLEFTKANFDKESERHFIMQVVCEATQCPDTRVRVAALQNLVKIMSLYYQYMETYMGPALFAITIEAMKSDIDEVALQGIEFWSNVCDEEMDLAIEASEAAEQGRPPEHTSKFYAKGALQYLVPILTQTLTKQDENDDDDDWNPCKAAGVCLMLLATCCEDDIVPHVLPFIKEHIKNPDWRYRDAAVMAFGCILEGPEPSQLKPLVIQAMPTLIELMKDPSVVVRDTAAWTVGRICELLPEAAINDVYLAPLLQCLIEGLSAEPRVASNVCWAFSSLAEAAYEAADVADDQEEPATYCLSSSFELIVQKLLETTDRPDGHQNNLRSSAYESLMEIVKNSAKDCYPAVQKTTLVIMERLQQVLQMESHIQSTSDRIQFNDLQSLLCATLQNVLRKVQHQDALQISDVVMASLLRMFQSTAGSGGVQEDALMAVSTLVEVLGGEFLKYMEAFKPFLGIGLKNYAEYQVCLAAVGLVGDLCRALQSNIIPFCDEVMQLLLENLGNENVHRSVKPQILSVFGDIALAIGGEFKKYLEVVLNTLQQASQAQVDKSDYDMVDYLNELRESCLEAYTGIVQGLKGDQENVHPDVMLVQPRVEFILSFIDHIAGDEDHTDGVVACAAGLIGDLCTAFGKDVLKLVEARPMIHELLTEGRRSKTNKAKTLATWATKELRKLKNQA
UniProt P35222: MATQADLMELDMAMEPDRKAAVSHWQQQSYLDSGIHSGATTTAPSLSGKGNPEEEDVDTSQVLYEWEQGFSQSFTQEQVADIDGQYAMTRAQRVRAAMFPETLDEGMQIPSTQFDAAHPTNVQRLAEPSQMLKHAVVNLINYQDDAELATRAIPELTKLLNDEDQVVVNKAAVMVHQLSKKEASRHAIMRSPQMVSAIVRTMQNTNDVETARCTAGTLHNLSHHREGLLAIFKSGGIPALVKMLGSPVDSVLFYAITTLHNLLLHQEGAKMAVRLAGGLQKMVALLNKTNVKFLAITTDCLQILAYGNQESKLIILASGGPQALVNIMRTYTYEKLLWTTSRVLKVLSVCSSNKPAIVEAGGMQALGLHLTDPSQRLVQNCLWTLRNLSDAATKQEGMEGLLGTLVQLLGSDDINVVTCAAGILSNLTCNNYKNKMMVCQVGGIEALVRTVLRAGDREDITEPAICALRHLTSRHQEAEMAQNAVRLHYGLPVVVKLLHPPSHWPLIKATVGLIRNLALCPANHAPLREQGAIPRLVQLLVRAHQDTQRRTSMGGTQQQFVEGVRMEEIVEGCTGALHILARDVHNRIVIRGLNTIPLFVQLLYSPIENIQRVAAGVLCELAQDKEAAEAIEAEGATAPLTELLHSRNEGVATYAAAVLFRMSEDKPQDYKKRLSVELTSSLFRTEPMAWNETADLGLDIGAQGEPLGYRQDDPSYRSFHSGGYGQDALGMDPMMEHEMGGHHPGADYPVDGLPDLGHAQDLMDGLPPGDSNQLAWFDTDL

Target: importin β (KPNB1) (human (endogenous in HeLa)) (UniProt Q14974)
Assay: co-IP

Substance: β-catenin (CTNNB1) (from UniProt P35222 1-781)
- binding: binds
